Publication PMC9526944
No constants are given. Whether binding was seen depends on the method and setting. Binding seen in cells or lysates may run through a third protein. These calls come from enrichment with a bait or labelling near it, and not all partners need be listed.

Amino acid sequences for entries named in this document (tags omitted).
UniProt Q91YI4: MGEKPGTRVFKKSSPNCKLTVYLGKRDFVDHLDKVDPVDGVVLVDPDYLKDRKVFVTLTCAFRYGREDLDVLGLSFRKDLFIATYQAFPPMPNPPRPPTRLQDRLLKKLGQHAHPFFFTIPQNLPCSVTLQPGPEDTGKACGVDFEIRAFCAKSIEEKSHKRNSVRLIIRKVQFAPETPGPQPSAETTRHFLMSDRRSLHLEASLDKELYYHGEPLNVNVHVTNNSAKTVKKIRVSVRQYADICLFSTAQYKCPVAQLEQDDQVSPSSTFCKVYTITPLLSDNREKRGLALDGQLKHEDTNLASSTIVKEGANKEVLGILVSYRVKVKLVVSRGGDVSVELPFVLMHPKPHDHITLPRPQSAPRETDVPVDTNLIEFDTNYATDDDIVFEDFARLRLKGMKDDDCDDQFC
UniProt P42227: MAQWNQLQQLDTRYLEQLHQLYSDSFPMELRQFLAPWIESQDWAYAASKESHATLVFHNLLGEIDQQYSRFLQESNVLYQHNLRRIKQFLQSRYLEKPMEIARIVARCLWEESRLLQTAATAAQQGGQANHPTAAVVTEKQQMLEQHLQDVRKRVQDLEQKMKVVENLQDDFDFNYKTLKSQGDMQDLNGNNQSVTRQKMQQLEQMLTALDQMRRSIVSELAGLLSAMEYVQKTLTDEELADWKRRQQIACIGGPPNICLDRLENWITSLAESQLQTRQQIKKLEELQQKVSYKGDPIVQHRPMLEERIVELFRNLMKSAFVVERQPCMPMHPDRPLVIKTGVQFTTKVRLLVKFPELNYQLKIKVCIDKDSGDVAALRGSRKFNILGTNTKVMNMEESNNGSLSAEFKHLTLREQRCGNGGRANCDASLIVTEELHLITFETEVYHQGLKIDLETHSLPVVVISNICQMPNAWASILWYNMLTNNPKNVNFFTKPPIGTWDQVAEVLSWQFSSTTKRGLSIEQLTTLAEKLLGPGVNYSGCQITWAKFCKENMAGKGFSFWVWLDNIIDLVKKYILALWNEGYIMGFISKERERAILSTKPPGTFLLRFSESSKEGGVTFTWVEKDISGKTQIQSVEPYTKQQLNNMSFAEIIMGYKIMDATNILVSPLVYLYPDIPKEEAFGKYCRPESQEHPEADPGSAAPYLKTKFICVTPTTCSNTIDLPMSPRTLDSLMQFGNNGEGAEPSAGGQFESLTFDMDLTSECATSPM

Molecular target: β-arrestin2 (bait of the immunoprecipitation for mass spectrometry) (UniProt Q91YI4)
Assay: affinity purification with mass spectrometry; immunoprecipitation with anti-β-arrestin2 antibody, FASP digestion, label-free mass spectrometry (Q Exactive, MaxQuant); source of the sample not stated

For “STAT3 (found in the β-arrestin2 immunoprecipitate by mass spectrometry) (from UniProt P42227 1-770)”, the binding was “binds”.
